Measured values taken from publication PMC6056535.

Target: Flag-abLIM1 (full-length human abLIM1, 743 amino acids) (human)
Experiment: affinity purification with mass spectrometry; lysates of HEK293T cells expressing Flag-abLIM1 or Flag-luciferase mixed with P0 mouse brain lysates, co-IP, shotgun mass spectrometry

B1: α adducin (mouse brain lysate) (protein, UniProt Q9QYC0 1-735)
chain: MNGDTRAAVVTSPPPTTAPHKERYFDRVDENNPEYLRERNMAPDLRQDFNMMEQKKRVSMILQSPAFCEELESMIQEQFKKGKNPTGLLALQQIADFMTASVPNVYPAAPQGGMAALNMSLGMVTPVNDLRGSDSIAYDKGEKLLRCKLAAFYRLADLFGWSQLIYNHITTRVNSEQEHFLIVPFGLLYSEVTASSLVKVNLQGDIVDRGSTNLGVNQAGFTLHSAVYAARPDAKCIVHIHTPAGAAVSAMKCGLLPISPEALSLGDVAYHDYHGILVDEEEKILIQKNLGPKSKVLILRNHGLVSVGESVEEAFYYIHNLVVACEIQVRTLASAGGPDNLVLLDPGKYKAKSRSPGTPAGEGSGSPPKWQIGEQEFEALMRMLDNLGYRTGYPYRYPALRERSKKYSDVEVPASVTGHSFASDGDSGTCSPLRHSFQKQQREKTRWLHSGRGDDASEEGQNGSSPKSKTKWTKEDGHRTSTSAVPNLFVPLNTNPKEVQEMRNKIREQNLQDIKTAGPQSQVLCGVMMDRSLVQGELVTASKAIIEKEYQPHVIVSTTGPNPFNTLTDRELEEYRREVERKQKGSEENLDETREQKEKSPPDQSAVPNTPPSTPVKLEEDLPQEPTSRDDSDATTFKPTPPDLSPDEPSEALAFPAVEEEAHASPDPTQPPAEADPEPASAPTPGAEEVASPATEEGSPMDPGSDGSPGKSPSKKKKKFRTPSFLKKSKKKSDS
binding: binds

Results are given in words; binding and its absence hold for the method and conditions named. Binding seen in cells or lysates may run through a third protein. A yes stands for co-enrichment or nearness to the bait. Other partners may have been found.
